Laboratory results from ChEMBL document CHEMBL5674883, “The Heterochromatin Landscape in Migrating Cells and the Importance of H3K27me3 for Associated Transcriptome Alterations” (Cells, 2018).
Further values from the same series stand in other lists.

Sequences of proteins named here, by UniProt entry; tags and fusion partners are left off.
UniProt Q61188, whole entry: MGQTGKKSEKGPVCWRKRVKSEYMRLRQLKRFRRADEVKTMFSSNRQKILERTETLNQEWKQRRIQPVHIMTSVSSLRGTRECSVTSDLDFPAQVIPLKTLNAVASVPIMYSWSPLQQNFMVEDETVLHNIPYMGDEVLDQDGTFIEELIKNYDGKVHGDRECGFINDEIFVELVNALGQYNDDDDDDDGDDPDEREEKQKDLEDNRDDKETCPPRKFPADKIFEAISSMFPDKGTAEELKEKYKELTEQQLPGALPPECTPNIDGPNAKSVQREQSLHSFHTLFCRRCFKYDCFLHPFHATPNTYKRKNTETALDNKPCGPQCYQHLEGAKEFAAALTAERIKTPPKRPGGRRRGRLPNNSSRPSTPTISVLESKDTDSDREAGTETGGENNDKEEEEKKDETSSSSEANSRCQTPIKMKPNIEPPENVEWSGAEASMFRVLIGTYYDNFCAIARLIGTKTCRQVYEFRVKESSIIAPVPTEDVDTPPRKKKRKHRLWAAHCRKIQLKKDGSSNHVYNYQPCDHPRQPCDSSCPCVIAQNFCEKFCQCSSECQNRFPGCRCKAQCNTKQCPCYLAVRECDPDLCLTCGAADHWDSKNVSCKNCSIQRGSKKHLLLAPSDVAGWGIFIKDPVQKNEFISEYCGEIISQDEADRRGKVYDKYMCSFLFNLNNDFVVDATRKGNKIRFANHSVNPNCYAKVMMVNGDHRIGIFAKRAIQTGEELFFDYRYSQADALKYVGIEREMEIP

How the values were obtained:
Assay type in all cases: cell-based
[1] = molecular target: T1, RNA polymerase II (Mus musculus) (UniProt P08775+Q8CFI7+P97760+A0A3Q4L2S8+Q80UW8+P61219+P62488+Q923G2+P60898+O08740+Q63871+P62876); assay: Inhibition of RNA polymerase II in mouse B16-F1 migrating cells assessed as fold change in Gm3839-RNA stability at 0.1 mM measured by ChIP-seq analysis relative to control cells
[2] = molecular target: T1, RNA polymerase II (Mus musculus); assay: Inhibition of RNA polymerase II in mouse B16-F1 migrating cells assessed as fold change in Tom1-RNA stability at 0.1 mM measured by ChIP-seq analysis relative to control cells
[3] = molecular target: T1, RNA polymerase II (Mus musculus); assay: Inhibition of RNA polymerase II in mouse B16-F1 migrating cells assessed as fold change in Fam162a-RNA stability at 0.1 mM measured by ChIP-seq analysis relative to control cells
[4] = molecular target: T1, RNA polymerase II (Mus musculus); assay: Inhibition of RNA polymerase II in mouse B16-F1 migrating cells assessed as fold change in Pla2g4a-RNA stability at 0.1 mM measured by ChIP-seq analysis relative to control cells
[5] = molecular target: T1, RNA polymerase II (Mus musculus); assay: Inhibition of RNA polymerase II in mouse B16-F1 migrating cells assessed as fold change in Ddx10-RNA stability at 0.1 mM measured by ChIP-seq analysis relative to control cells
[6] = molecular target: T1, RNA polymerase II (Mus musculus); assay: Inhibition of RNA polymerase II in mouse B16-F1 migrating cells assessed as fold change in Ndc80-RNA stability at 0.1 mM measured by ChIP-seq analysis relative to control cells
[7] = molecular target: T1, RNA polymerase II (Mus musculus); assay: Inhibition of RNA polymerase II in mouse B16-F1 migrating cells assessed as fold change in L2hgdh-RNA stability at 0.1 mM measured by ChIP-seq analysis relative to control cells
[8] = molecular target: T1, RNA polymerase II (Mus musculus); assay: Inhibition of RNA polymerase II in mouse B16-F1 migrating cells assessed as fold change in Acadsb-RNA stability at 0.1 mM measured by ChIP-seq analysis relative to control cells
[9] = molecular target: T1, RNA polymerase II (Mus musculus); assay: Inhibition of RNA polymerase II in mouse B16-F1 migrating cells assessed as fold change in Usp16-RNA stability at 0.1 mM measured by ChIP-seq analysis relative to control cells
[10] = molecular target: T1, RNA polymerase II (Mus musculus); assay: Inhibition of RNA polymerase II in mouse B16-F1 migrating cells assessed as fold change in Atp13a3-RNA stability at 0.1 mM measured by ChIP-seq analysis relative to control cells
[11] = molecular target: T1, RNA polymerase II (Mus musculus); assay: Inhibition of RNA polymerase II in mouse B16-F1 migrating cells assessed as fold change in Espn-RNA stability at 0.1 mM measured by ChIP-seq analysis relative to control cells
[12] = molecular target: T1, RNA polymerase II (Mus musculus); assay: Inhibition of RNA polymerase II in mouse B16-F1 migrating cells assessed as fold change in Hltf-RNA stability at 0.1 mM measured by ChIP-seq analysis relative to control cells
[13] = molecular target: Histone-lysine N-methyltransferase EZH2 (Mus musculus) (UniProt Q61188); assay: Inhibition of EZH2 in mouse B16-F1 migrating cells assessed as fold change in H3K27me3-independent regulated Sgms2-mRNA expression at 3 uM measured by ChIP-seq analysis relative to control cells
[14] = molecular target: Histone-lysine N-methyltransferase EZH2 (Mus musculus) (UniProt Q61188); assay: Inhibition of EZH2 in mouse B16-F1 migrating cells assessed as fold change in H3K27me3-buffered regulated Grasp-mRNA expression at 3 uM measured by ChIP-seq analysis relative to control cells
[15] = molecular target: Histone-lysine N-methyltransferase EZH2 (Mus musculus) (UniProt Q61188); assay: Inhibition of EZH2 in mouse B16-F1 migrating cells assessed as fold change in H3K27me3-independent regulated Atf3-mRNA expression at 3 uM measured by ChIP-seq analysis relative to control cells
[16] = molecular target: Histone-lysine N-methyltransferase EZH2 (Mus musculus) (UniProt Q61188); assay: Inhibition of EZH2 in mouse B16-F1 migrating cells assessed as fold change in H3K27me3-buffered regulated Pkm-mRNA expression at 3 uM measured by ChIP-seq analysis relative to control cells
[17] = molecular target: Histone-lysine N-methyltransferase EZH2 (Mus musculus) (UniProt Q61188); assay: Inhibition of EZH2 in mouse B16-F1 migrating cells assessed as fold change in H3K27me3-buffered regulated Ccdc65-mRNA expression at 3 uM measured by ChIP-seq analysis relative to control cells
[18] = molecular target: Histone-lysine N-methyltransferase EZH2 (Mus musculus) (UniProt Q61188); assay: Inhibition of EZH2 in mouse B16-F1 migrating cells assessed as fold change in H3K27me3-buffered regulated Arid4b-mRNA expression at 3 uM measured by ChIP-seq analysis relative to control cells
[19] = molecular target: Histone-lysine N-methyltransferase EZH2 (Mus musculus) (UniProt Q61188); assay: Inhibition of EZH2 in mouse B16-F1 migrating cells assessed as fold change in H3K27me3-buffered regulated Boc-mRNA expression at 3 uM measured by ChIP-seq analysis relative to control cells
[20] = molecular target: Histone-lysine N-methyltransferase EZH2 (Mus musculus) (UniProt Q61188); assay: Inhibition of EZH2 in mouse B16-F1 migrating cells assessed as fold change in H3K27me3-buffered regulated Tmbim1-mRNA expression at 3 uM measured by ChIP-seq analysis relative to control cells
[21] = molecular target: Histone-lysine N-methyltransferase EZH2 (Mus musculus) (UniProt Q61188); assay: Inhibition of EZH2 in mouse B16-F1 migrating cells assessed as fold change in H3K27me3-buffered regulated Mex3b-mRNA expression at 3 uM measured by ChIP-seq analysis relative to control cells
[22] = molecular target: Histone-lysine N-methyltransferase EZH2 (Mus musculus) (UniProt Q61188); assay: Inhibition of EZH2 in mouse B16-F1 migrating cells assessed as fold change in H3K27me3-independent regulated Loxl2-mRNA expression at 3 uM measured by ChIP-seq analysis relative to control cells
[23] = molecular target: Histone-lysine N-methyltransferase EZH2 (Mus musculus) (UniProt Q61188); assay: Inhibition of EZH2 in mouse B16-F1 migrating cells assessed as fold change in H3K27me3-buffered regulated Trp53inp2-mRNA expression at 3 uM measured by ChIP-seq analysis relative to control cells
[24] = molecular target: Histone-lysine N-methyltransferase EZH2 (Mus musculus) (UniProt Q61188); assay: Inhibition of EZH2 in mouse B16-F1 migrating cells assessed as fold change in H3K27me3-buffered regulated Rbms1-mRNA expression at 3 uM measured by ChIP-seq analysis relative to control cells
[25] = molecular target: Histone-lysine N-methyltransferase EZH2 (Mus musculus) (UniProt Q61188); assay: Inhibition of EZH2 in mouse B16-F1 migrating cells assessed as fold change in H3K27me3-buffered regulated Flrt3-mRNA expression at 3 uM measured by ChIP-seq analysis relative to control cells
[26] = molecular target: Histone-lysine N-methyltransferase EZH2 (Mus musculus) (UniProt Q61188); assay: Inhibition of EZH2 in mouse B16-F1 migrating cells assessed as fold change in H3K27me3-buffered regulated S100a1-mRNA expression at 3 uM measured by ChIP-seq analysis relative to control cells
[27] = molecular target: Histone-lysine N-methyltransferase EZH2 (Mus musculus) (UniProt Q61188); assay: Inhibition of EZH2 in mouse B16-F1 migrating cells assessed as fold change in H3K27me3-buffered regulated Bdp1-mRNA expression at 3 uM measured by ChIP-seq analysis relative to control cells
[28] = molecular target: Histone-lysine N-methyltransferase EZH2 (Mus musculus) (UniProt Q61188); assay: Inhibition of EZH2 in mouse B16-F1 migrating cells assessed as fold change in H3K27me3-buffered regulated Gas5-mRNA expression at 3 uM measured by ChIP-seq analysis relative to control cells
[29] = molecular target: Histone-lysine N-methyltransferase EZH2 (Mus musculus) (UniProt Q61188); assay: Inhibition of EZH2 in mouse B16-F1 migrating cells assessed as fold change in H3K27me3-dependent regulated Zfp934-mRNA expression at 3 uM measured by ChIP-seq analysis relative to control cells
[30] = molecular target: Histone-lysine N-methyltransferase EZH2 (Mus musculus) (UniProt Q61188); assay: Inhibition of EZH2 in mouse B16-F1 migrating cells assessed as fold change in H3K27me3-buffered regulated Dennd2a-mRNA expression at 3 uM measured by ChIP-seq analysis relative to control cells

`OC[C@H]1O[C@@H](n2cnc3cc(Cl)c(Cl)cc32)[C@H](O)[C@@H]1O` showed a log2FC [1] of 0.52, a log2FC [2] of 0.5 and a log2FC [3] of 0.91. For the same compound, the log2FC [4] was -0.5, the log2FC [5] was -0.82 and the log2FC [6] was -0.61. For the same compound, the log2FC [7] was -0.52, the log2FC [8] was -0.63 and the log2FC [9] was -0.54. It also gave a log2FC [10] of -0.61, a log2FC [11] of 1.45 and a log2FC [12] of -0.77.
In the case of `CCCc1cc(C)[nH]c(=O)c1CNC(=O)c1cc(-c2ccnc(N3CCN(C)CC3)c2)cc2c1cnn2C(C)C`, the log2FC [13] is reported as 0.57, the log2FC [14] is reported as -0.48 and the log2FC [15] is reported as 0.57. It also gave a log2FC [16] of 0.38, a log2FC [17] of 0.82 and a log2FC [18] of -0.4. For the same compound, the log2FC [19] was -0.86, the log2FC [20] was 0.44 and the log2FC [21] was -0.98. The log2FC [22] was 0.65, the log2FC [23] was 0.53 and the log2FC [24] was -0.41. For the same compound, the log2FC [25] was -0.46, the log2FC [26] was 0.46 and the log2FC [27] was -0.41. It also gave a log2FC [28] of -0.42, a log2FC [29] of -0.51 and a log2FC [30] of 0.38.
